PubChem BioAssay AID1259424, University of Nebraska Medical Center, 2018
Assay: 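Rank knockdowns across the genome by resemblance to the KSR1 depletion profile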 (primary screen). System: human HCT116 colon cancer cells. Reagent: siRNA pool against human genes, 50 nM. Measured: 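Six signature mRNAs by branched-DNA multiplex assay, scaled to two housekeeping genes and non-targeting median, log2; matched to mean KSR1 knockdown profile by Pearson correlation and euclidean distance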. Reading the numbers: mean correlation with KSR1 profile and KSR1 correlation: higher = expression change more like KSR1 knockdown; mean distance from KSR1 profile: higher = expression change less like KSR1 knockdown.
The whole screen tested about 14,000 reagents; shown is a random part of them. 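Higher correlation or smaller distance means closer resemblance to KSR1 loss; control wells, including KSR1 knockdowns, recur on many plates.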 Reagent sequences are not shown. The record does not give: the time to read-out.

gene knocked down	mean correlation with KSR1 profile	mean distance from KSR1 profile	KSR1 correlation, replicate 1	KSR1 correlation, replicate 2	KSR1 correlation, replicate 3
ENPP1	-0.123	2.42	-0.155	-0.263	-0.254
TMPRSS11D	0.047	2.92	0.12	-0.0536	-0.0433
GMDS	0.232	1.19	0.226	0.0272	0.334
FXYD6	-0.532	7.31	-0.371	-0.239	-0.417
DDO	-0.233	1.77	-0.325	-0.106	-0.261
C3orf52	0.39	1.57	0.562	0.709	-0.0592
RSL1D1	-0.341	2.76	-0.215	-0.505	-0.455
ZNF84	0.661	1.4	0.559	0.927	0.509
OLFM4	-0.492	4.27	-0.428	-0.506	-0.465
KRT6B	-0.417	1.76	-0.335	-0.569	-0.415
COL5A3	-0.66	2.95	-0.652	-0.728	-0.666
QTRT1	-0.0874	1.66	-0.773	-0.6	0.18
SLBP	0.318	1.67	0.31	-0.0968	0.217
IKBKE	0.075	1.96	0.34	0.461	-0.36
ANXA4	-0.091	3.12	0.256	-0.00307	-0.159
TLR5	-0.477	1.93	-0.679	-0.276	-0.448
H3C11	-0.441	1.18	-0.333	-0.0894	-0.464
BICRA	-0.00518	1.35	0.15	-0.125	-0.134
EIF2A	0.673	2.02	0.465	0.576	0.771
PRDM1	0.288	1.79	0.532	0.376	0.298
EFNB3	-0.0302	2.89	-0.0473	0.081	-0.488
PAPPA2	0.45	1.37	0.422	0.49	0.28
FDX1	-0.0654	1.49	-0.0327	-0.28	0.0591
CDIPT	-0.237	2.17	-0.186	-0.224	-0.119
PLXNB2	-0.279	3.16	-0.154	-0.448	-0.388
TTBK1	0.513	1.57	0.683	0.417	-0.169
APMAP	0.655	1.6	0.595	0.653	0.627
DCK	-0.346	2.84	-0.0797	-0.5	-0.609
HDC	0.281	2.2	0.18	0.155	0.306
LEPR	0.193	1.48	-0.0553	0.359	0.151
DLGAP5	0.056	1.59	0.149	-0.304	0.111
PLPP7	0.148	2.62	0.073	0.0164	0.035
NKX2-8	-0.329	1.99	-0.102	-0.0588	-0.407
RPSA	0.287	4.01	0.355	0.176	0.278
RPIA	-0.538	2.33	-0.373	-0.549	-0.528
MRPS18B	-0.339	2.15	-0.623	-0.627	-0.22
RNF167	-0.263	2.84	0.0281	-0.279	-0.543
DCAF7	0.503	2.47	0.41	0.39	0.506
FBXL21P	0.436	1.54	0.437	0.229	0.434
FKBP1B	-0.595	2.91	-0.694	-0.669	-0.55
OTUB2	-0.44	1.88	-0.513	-0.511	-0.395
SLC67A1-AS	-0.111	2.62	0.195	-0.158	-0.223
P2RY1	0.585	1.74	0.654	0.691	0.607
CYP26A1	-0.355	3.25	-0.376	-0.442	-0.488
BIRC2	-0.475	1.32	-0.741	-0.699	-0.0675
ANGPTL8	-0.321	4.33	-0.396	-0.306	-0.19
AK3	0.256	1.57	0.428	0.18	-0.182
KIAA0586	-0.111	2.88	0.0305	0.0337	-0.226
OXGR1	-0.23	2.2	-0.0185	-0.0785	-0.519
SLC35A2	-0.574	2.91	-0.613	-0.652	-0.396

Laid out differently: entries from further up.
{"gene knocked down":"PLPP7","mean correlation with KSR1 profile":0.148,"mean distance from KSR1 profile":2.62,"KSR1 correlation, replicate 1":0.073,"KSR1 correlation, replicate 2":0.0164,"KSR1 correlation, replicate 3":0.035}
{"gene knocked down":"NKX2-8","mean correlation with KSR1 profile":-0.329,"mean distance from KSR1 profile":1.99,"KSR1 correlation, replicate 1":-0.102,"KSR1 correlation, replicate 2":-0.0588,"KSR1 correlation, replicate 3":-0.407}
{"gene knocked down":"RPSA","mean correlation with KSR1 profile":0.287,"mean distance from KSR1 profile":4.01,"KSR1 correlation, replicate 1":0.355,"KSR1 correlation, replicate 2":0.176,"KSR1 correlation, replicate 3":0.278}
{"gene knocked down":"RPIA","mean correlation with KSR1 profile":-0.538,"mean distance from KSR1 profile":2.33,"KSR1 correlation, replicate 1":-0.373,"KSR1 correlation, replicate 2":-0.549,"KSR1 correlation, replicate 3":-0.528}
{"gene knocked down":"MRPS18B","mean correlation with KSR1 profile":-0.339,"mean distance from KSR1 profile":2.15,"KSR1 correlation, replicate 1":-0.623,"KSR1 correlation, replicate 2":-0.627,"KSR1 correlation, replicate 3":-0.22}
{"gene knocked down":"RNF167","mean correlation with KSR1 profile":-0.263,"mean distance from KSR1 profile":2.84,"KSR1 correlation, replicate 1":0.0281,"KSR1 correlation, replicate 2":-0.279,"KSR1 correlation, replicate 3":-0.543}
